Source: article PMC8166876
These are yes or no findings as the source states them, for the method shown. Binding seen in cells or lysates may run through a third protein. Some entries that bind do so weakly or less than the wild type.

T1: Phenazine biosynthesis-like domain-containing protein (PBLD) (UniProt P30039)
T1 sequence: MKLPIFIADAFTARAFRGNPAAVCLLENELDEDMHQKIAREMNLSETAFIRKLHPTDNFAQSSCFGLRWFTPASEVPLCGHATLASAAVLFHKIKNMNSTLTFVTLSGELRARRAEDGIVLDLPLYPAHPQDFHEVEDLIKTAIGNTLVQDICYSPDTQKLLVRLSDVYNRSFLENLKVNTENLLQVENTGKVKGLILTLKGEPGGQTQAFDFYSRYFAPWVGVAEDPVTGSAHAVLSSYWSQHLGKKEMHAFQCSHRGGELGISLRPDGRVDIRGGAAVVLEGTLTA

T2: IKKα (human (endogenous in FHC)) (UniProt O15111)
T2 sequence: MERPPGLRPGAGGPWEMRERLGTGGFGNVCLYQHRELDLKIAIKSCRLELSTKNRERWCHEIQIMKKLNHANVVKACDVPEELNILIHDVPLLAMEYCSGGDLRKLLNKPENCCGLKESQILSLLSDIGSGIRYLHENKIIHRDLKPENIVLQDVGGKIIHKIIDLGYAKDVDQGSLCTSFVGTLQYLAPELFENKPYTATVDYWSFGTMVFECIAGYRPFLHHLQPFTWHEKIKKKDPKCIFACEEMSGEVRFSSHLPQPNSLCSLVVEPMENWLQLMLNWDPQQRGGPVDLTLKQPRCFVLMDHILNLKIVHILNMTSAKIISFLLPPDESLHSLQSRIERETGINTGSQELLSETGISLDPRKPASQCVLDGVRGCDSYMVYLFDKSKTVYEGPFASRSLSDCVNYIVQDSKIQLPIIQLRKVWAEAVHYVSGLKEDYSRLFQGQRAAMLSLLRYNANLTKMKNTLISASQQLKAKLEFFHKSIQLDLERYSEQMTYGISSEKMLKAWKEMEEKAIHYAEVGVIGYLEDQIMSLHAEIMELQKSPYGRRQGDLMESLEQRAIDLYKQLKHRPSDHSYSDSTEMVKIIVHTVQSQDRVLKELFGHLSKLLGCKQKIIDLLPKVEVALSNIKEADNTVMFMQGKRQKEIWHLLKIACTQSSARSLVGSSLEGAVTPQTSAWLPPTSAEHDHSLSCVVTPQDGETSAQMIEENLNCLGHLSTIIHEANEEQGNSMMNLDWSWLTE

T3: IKKβ (human (endogenous in FHC)) (UniProt O14920)
T3 sequence: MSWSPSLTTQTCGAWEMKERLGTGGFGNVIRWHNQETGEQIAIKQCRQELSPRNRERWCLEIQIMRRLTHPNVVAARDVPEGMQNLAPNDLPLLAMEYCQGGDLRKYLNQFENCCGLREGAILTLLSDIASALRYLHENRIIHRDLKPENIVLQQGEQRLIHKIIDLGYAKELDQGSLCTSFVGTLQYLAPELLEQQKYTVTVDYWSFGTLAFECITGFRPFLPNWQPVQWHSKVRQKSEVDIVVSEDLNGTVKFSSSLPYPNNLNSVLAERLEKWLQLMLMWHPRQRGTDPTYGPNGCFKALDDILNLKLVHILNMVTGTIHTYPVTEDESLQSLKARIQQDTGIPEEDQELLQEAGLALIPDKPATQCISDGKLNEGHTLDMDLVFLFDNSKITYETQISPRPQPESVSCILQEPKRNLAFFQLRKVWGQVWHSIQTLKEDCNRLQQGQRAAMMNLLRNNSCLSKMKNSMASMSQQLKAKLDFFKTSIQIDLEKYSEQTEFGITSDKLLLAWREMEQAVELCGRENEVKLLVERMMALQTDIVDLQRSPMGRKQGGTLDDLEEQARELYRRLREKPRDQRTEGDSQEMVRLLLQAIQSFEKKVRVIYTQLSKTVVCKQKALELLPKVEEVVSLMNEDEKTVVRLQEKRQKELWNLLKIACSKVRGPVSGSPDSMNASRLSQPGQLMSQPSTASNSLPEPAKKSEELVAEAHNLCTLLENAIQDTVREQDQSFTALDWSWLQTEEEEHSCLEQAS


What was measured:
Test in all cases: co-IP; FHC-PBLD cell lysate (1000 μg) incubated with 2 μg of anti-PBLD, anti-IKKβ or anti-IKKα antibody or control IgG and 20 μL protein A/G magnetic beads overnight at 4 °C; washed three times with lysis buffer; western blot
[1] = target: T1, Phenazine biosynthesis-like domain-containing protein (PBLD)
[2] = target: T2, IKKα (human (endogenous in FHC))
[3] = target: T3, IKKβ (human (endogenous in FHC))

Binder	binding [1]	binding [2]	binding [3]
IKKβ (protein, UniProt O14920 1-756) MSWSPSLTTQTCGAWEMKERLGTGGFGNVIRWHNQETGEQIAIKQCRQELSPRNRERWCLEIQIMRRLTHPNVVAARDVPEGMQNLAPNDLPLLAMEYCQGGDLRKYLNQFENCCGLREGAILTLLSDIASALRYLHENRIIHRDLKPENIVLQQGEQRLIHKIIDLGYAKELDQGSLCTSFVGTLQYLAPELLEQQKYTVTVDYWSFGTLAFECITGFRPFLPNWQPVQWHSKVRQKSEVDIVVSEDLNGTVKFSSSLPYPNNLNSVLAERLEKWLQLMLMWHPRQRGTDPTYGPNGCFKALDDILNLKLVHILNMVTGTIHTYPVTEDESLQSLKARIQQDTGIPEEDQELLQEAGLALIPDKPATQCISDGKLNEGHTLDMDLVFLFDNSKITYETQISPRPQPESVSCILQEPKRNLAFFQLRKVWGQVWHSIQTLKEDCNRLQQGQRAAMMNLLRNNSCLSKMKNSMASMSQQLKAKLDFFKTSIQIDLEKYSEQTEFGITSDKLLLAWREMEQAVELCGRENEVKLLVERMMALQTDIVDLQRSPMGRKQGGTLDDLEEQARELYRRLREKPRDQRTEGDSQEMVRLLLQAIQSFEKKVRVIYTQLSKTVVCKQKALELLPKVEEVVSLMNEDEKTVVRLQEKRQKELWNLLKIACSKVRGPVSGSPDSMNASRLSQPGQLMSQPSTASNSLPEPAKKSEELVAEAHNLCTLLENAIQDTVREQDQSFTALDWSWLQTEEEEHSCLEQAS	binds		
Phenazine biosynthesis-like domain-containing protein (PBLD) (protein, UniProt P30039 1-288) MKLPIFIADAFTARAFRGNPAAVCLLENELDEDMHQKIAREMNLSETAFIRKLHPTDNFAQSSCFGLRWFTPASEVPLCGHATLASAAVLFHKIKNMNSTLTFVTLSGELRARRAEDGIVLDLPLYPAHPQDFHEVEDLIKTAIGNTLVQDICYSPDTQKLLVRLSDVYNRSFLENLKVNTENLLQVENTGKVKGLILTLKGEPGGQTQAFDFYSRYFAPWVGVAEDPVTGSAHAVLSSYWSQHLGKKEMHAFQCSHRGGELGISLRPDGRVDIRGGAAVVLEGTLTA		binds	binds
